# Taken from: PubChem BioAssay AID602196 (INSERM, 2012)
# Purpose: 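Genes whose knock-down alters cisplatin killing of lung cancer cells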
# Cell system: human A549 lung cancer cells
# Reagent: siRNA pair against human genes
# Time to read-out: 48 h transfection before cisplatin; time from cisplatin to read-out not stated
# Treatment: cisplatin at a dose killing half of control-siRNA cells; exact dose and duration not given
# Detection: 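Cisplatin cell death as a shift from the 50% death seen with control siRNA; siRNAs toxic or growth-blocking alone scored 0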
# Direction: two-siRNA summed score (-2 to +2): higher = both siRNAs protect from cisplatin killing; -2 means both sensitise; mean protection from cisplatin (shift in death) and protection from cisplatin (shift in death), siRNA C and protection from cisplatin (shift in death), siRNA D: higher = protection from cisplatin killing
# Active means: 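Each siRNA scores 0 if harmful alone by LDH or WST-1, otherwise +1 if it reduces and -1 if it increases cisplatin killing; a gene is active when both siRNAs agree (sum +2 or -2)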
# Calls: active = both siRNAs shift cisplatin killing the same way; inactive = no consistent shift, or siRNA harmful alone
# This is one part, drawn at random, of about 23,000 reagents tested. Of all reagents, 455 (2%) got an active call. 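Active includes both protection and sensitisation; some change values fall well beyond the stated -50 to +50 range.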 Reagent sequences are not shown. Not given: the amount of reagent.
gene symbol,PubChem SID,two-siRNA summed score (-2 to +2),mean protection from cisplatin (shift in death) (%),"protection from cisplatin (shift in death), siRNA C (%)","protection from cisplatin (shift in death), siRNA D (%)",activity call
LOC440093,SID131515400,0,9.1,10.2,8.1,inactive
LOC200312,SID131515281,0,8.9,22.4,-4.5,inactive
CD96,SID131511099,0,4,6.9,1.1,inactive
PTEN,SID131508746,0,1.4,0.6,2.3,inactive
ZNF19,SID131506298,0,-1.7,-3,-0.4,inactive
SCAF1,SID131500895,-1,-14.5,-27.9,-1.1,inactive
GPATCH3,SID131501613,-1,-8.6,9.5,-26.8,inactive
LOC440584,SID131511428,0,4.3,9.5,-0.8,inactive
TMEM270,SID131507276,0,-0.3,-0.6,0,inactive
DBH,SID131508062,0,0.6,2.3,-1.1,inactive
LOC388752,SID131521918,1,15.4,4.9,26,inactive
WFDC6,SID131511191,0,4.1,-6.3,14.5,inactive
LOC441519,SID131514398,0,7.8,3.3,12.2,inactive
TIGD2,SID131511959,0,5,-3.7,13.6,inactive
KCNE1,SID131506247,0,-1.8,4.9,-8.4,inactive
FLJ14082,SID131516900,0,11.9,10.4,13.4,inactive
MT1M,SID131511754,0,4.7,2.1,7.3,inactive
ADM2,SID131519355,1,5,21,-11,inactive
BCAS4,SID131506908,0,-0.8,-11.6,10,inactive
TADA1,SID131521136,1,12.3,4.4,20.2,inactive
RPS4X,SID131518609,0,22.5,35.3,9.7,inactive
AHCY,SID131503695,0,-8.4,-14.4,-2.3,inactive
HSPB6,SID131520875,1,11.4,15.3,7.5,inactive
APOBEC3D,SID131515074,0,8.6,10.2,7,inactive
SURF2,SID131514306,0,7.6,17.5,-2.2,inactive
LOC130429,SID131501405,-1,-10,-14.1,-5.8,inactive
LOC196394,SID131511535,0,4.5,9,0,inactive
ASB9,SID131513454,0,6.6,5.4,7.8,inactive
INSM2,SID131505224,0,-3.5,-5.1,-2,inactive
DRC5,SID131507450,0,-0.1,-9.8,9.6,inactive
TNFRSF18,SID131514632,0,8,2.1,14,inactive
TTC16,SID131512239,0,5.3,-14.5,25.1,inactive
CLCA3P,SID131507020,0,-0.7,11.3,-12.6,inactive
OR56A4,SID131514995,0,8.5,9.1,8,inactive
UBB,SID131515934,0,9.9,9.7,10.2,inactive
COX7A2,SID131522971,2,15.1,22.1,8,active
LOC441337,SID131506978,0,-0.7,-1.5,0.1,inactive
RPL11,SID131518726,0,25.2,26.4,24,inactive
PADI4,SID131516003,0,10.1,10.8,9.3,inactive
LOC389428,SID131516887,0,11.9,26.6,-2.8,inactive
LOC392242,SID131500803,-1,-15.8,-17.5,-14.1,inactive
ALDH9A1,SID131519928,1,8,-7.2,23.2,inactive
LOC346157,SID131518123,0,16.7,14.2,19.3,inactive
IQGAP2,SID131503270,0,-11.5,-4.1,-18.8,inactive
SLCO2B1,SID131504636,0,-4.9,-10.1,0.4,inactive
STK38,SID131522531,1,19.7,-6,45.4,inactive
NEK8,SID131512832,0,5.9,12.5,-0.7,inactive
HSD11B2,SID131516245,0,10.5,17.2,3.8,inactive
GKN1,SID131501305,-1,-10.7,5,-26.3,inactive
CA1,SID131505536,0,-3,-0.5,-5.4,inactive
MGA,SID131507860,0,0.3,5.1,-4.4,inactive
TMEM191A,SID131515910,0,9.9,7.7,12.1,inactive
SIK1,SID131513161,0,6.3,2.2,10.4,inactive
LOC122585,SID131515486,0,9.2,22.3,-3.9,inactive
LOC139193,SID131511268,0,4.2,0.6,7.7,inactive
LOC440991,SID131516048,0,10.2,29.9,-9.5,inactive
PSMB3,SID131518520,0,20.9,24.1,17.7,inactive
LOC285435,SID131520433,1,9.9,19.4,0.3,inactive
AGL,SID131510252,0,3,0.9,5.1,inactive
LOC196337,SID131522301,1,17.6,13.7,21.5,inactive
CFAP47,SID131507320,0,-0.3,2.4,-3,inactive
CFAP47,SID131510185,0,3,7.5,-1.6,inactive
PSMD14,SID131514213,0,7.5,7.7,7.3,inactive
SHPK,SID131506255,0,-1.8,4.8,-8.4,inactive
OSCP1,SID131518082,0,16.4,5.4,27.3,inactive
DHCR7,SID131502989,0,-16.5,3.3,-36.2,inactive
LOC388635,SID131517787,0,14.8,11,18.6,inactive
PARP12,SID131501656,-1,-8.3,-23.5,6.8,inactive
RGS12,SID131511507,0,4.4,2.2,6.7,inactive
C1S,SID131502328,-1,-3.4,-11.6,4.8,inactive
LOC400807,SID131506182,0,-1.9,-1.5,-2.3,inactive
LOC440349,SID131517696,0,14.4,1.4,27.4,inactive
ZDHHC16,SID131502748,-1,5.8,17.8,-6.3,inactive
